From US7122340B2, “Regulatory T cells; methods” (Schering Corporation, priority 2000, dated 2006)
Entries after “also recorded” stand apart in the source; their conditions may differ. For at least one compound, name, drawing or mass did not settle the structure.

Test system: naive T cells (CD4+CD62L+)
Test: Differentiation of naive CD4+ T cells stimulated with antigen and antigen presenting cells; cytokine profile after restimulation (FACS, secreted cytokines)
Type: cell-based, mouse

For `C[C@@H]1C[C@H]2[C@@H]3CCC4=CC(=O)C=C[C@]4(C)[C@@]3(F)[C@@H](O)C[C@]2(C)[C@@]1(O)C(=O)CO` [Dex, Dexamethasone], the “Proliferation of the cells” value was “proliferated only poorly” and the “Resulting T cell population / cytokine profile (in words)” value (antigen and APC culture of DO11.10 CD4+ T cells) was “partially inhibited both IL-4 and IL-5 and IFN-γ, and enhanced the production of IL-10; also recorded: inhibited both IL-4 and IL-5 and IFN-γ, although not completely, and enhanced production of IL-10”.
